Measurements published in patent US20120214778A1 (priority 2009, published 2012).

Assay: CONFIRM phase III study: health-related quality of life (FACT-B, TOI)
Format: in vivo, postmenopausal women
Conditions: HRQoL subgroup

Question: Which “mean TOI score (on-treatment HRQoL)” value (250 mg, 73 patients) does the source give for `C[C@]12CC[C@@H]3c4ccc(O)cc4C[C@@H](CCCCCCCCC[S+]([O-])CCCC(F)(F)C(F)(F)F)[C@H]3[C@@H]1CC[C@@H]2O` (stereo partly drawn) [fulvestrant, 7alpha-[9-(4,4,5,5,5-pentafluoropentylsulfinyl)-nonyl]estra-1,3,5, (10)-triene-3, 17beta-diol] here?
Answer: approximately 60 out of 92

Question: What about the “mean TOI score (on-treatment HRQoL)” value (500 mg, 72 patients) of the same molecule?
Answer: approximately 60 out of 92
